Results deposited as PubChem BioAssay AID743121 (NCATS, 2013)

Aim: 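Partners whose loss is lethal together with topoisomerase I blockade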 (primary screen)
System: MDA-MB-231 cells, a human breast cancer line
Reagents: single siRNA against human genes, 20 nM siRNA (0.8 pmol per well)
Duration: 120 h (drug added 48 h after transfection, read 72 h later)
Conditions: camptothecin 20 nM (about EC30) for 72 h; vehicle 0.1% DMSO in parallel plates
Detection: 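CellTiter-Glo ATP signal, scaled to control siRNA as percent viability; sensitisation given as log2 of untreated divided by camptothecin-treated viability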
Direction: log2 vehicle/camptothecin viability: higher = stronger sensitisation to camptothecin
Rule for the call: 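Each gene scored by redundant siRNA activity (RSA) over its individual siRNA ratios; a gene is called active at p < 0.001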
Here is an unselected part of about 26,000 reagents tested. 167 of them (0.63%) count as active. 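Calls are per gene from RSA p-values that are not deposited; an individual active-marked siRNA can sensitise only weakly.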 The numbers tell different reagents against one gene apart. Not all columns of the deposit are shown.

log2 vehicle/camptothecin viability, by gene and reagent
KCNJ1: #1 -0.474 inactive; #2 0.0758 inactive; #3 0.104 inactive; #4 -0.399 inactive
MVK: #1 -0.285 inactive; #2 -0.408 inactive; #3 -0.582 inactive; #4 -0.523 inactive
ADAM19: #1 0.704 active; #2 0.804 active; #3 0.637 active; #4 0.109 active
SIGLEC5: #1 0.185 inactive; #2 -0.0505 inactive; #3 -0.2 inactive; #4 0.322 inactive
SP140: #1 -0.251 inactive; #2 -0.296 inactive; #3 -0.575 inactive; #4 -0.107 inactive
ACACA: #1 -0.274 inactive; #2 0.184 inactive; #3 -0.176 inactive; #4 -0.141 inactive
RAB33A: #1 -0.196 inactive; #2 -0.187 inactive; #3 -0.286 inactive
MAPK15: #1 0.766 inactive; #2 -0.00826 inactive; #3 -0.518 inactive; #4 0.434 inactive
ITGB1: #1 -0.098 inactive; #2 -0.0607 inactive; #3 -0.47 inactive; #4 -0.184 inactive
PDGFD: #1 0.175 inactive; #2 -0.136 inactive; #3 -0.0949 inactive
HCAR3: #1 -0.296 inactive; #2 -0.0822 inactive; #3 -0.0876 inactive; #4 -0.258 inactive
FLCN: #1 -0.416 inactive; #2 0.00275 inactive; #3 -0.273 inactive; #4 -0.382 inactive
ULK3: #1 -0.135 inactive; #2 -0.374 inactive; #3 0.585 inactive; #4 -0.252 inactive
PLP1: #1 0.00399 inactive; #2 0.058 inactive; #3 0.325 inactive; #4 0.539 inactive
MAK: #1 -0.22 inactive; #2 0.0119 inactive; #3 0.699 inactive; #4 -0.556 inactive
TUBA3E: #1 -0.211 inactive; #2 -0.501 inactive
CYP4F3: #1 -0.55 inactive; #2 0.126 inactive; #3 -0.306 inactive; #4 -0.0645 inactive; #5 0.237 inactive; #6 -0.0667 inactive
DYRK3: #1 -0.237 inactive; #2 0.309 inactive; #3 -0.0621 inactive; #4 -0.142 inactive
PDE6G: #1 0.11 inactive; #2 -0.0192 inactive; #3 -0.0914 inactive
CHRNA7: #1 -0.364 inactive; #2 -0.118 inactive; #3 -0.0778 inactive; #4 -0.344 inactive
CD3D: #1 0.191 inactive; #2 0.267 inactive; #3 -0.301 inactive; #4 -0.0811 inactive
ARTN: #1 0.308 active; #2 0.429 active; #3 0.483 active
SIRT4: #1 0.263 inactive; #2 -0.741 inactive; #3 0.241 inactive; #4 -0.00838 inactive

Reprinted from the entries so far (7 entries):
log2 vehicle/camptothecin viability, by gene and reagent
PLP1: #3 0.325 inactive; #4 0.539 inactive
MAK: #1 -0.22 inactive; #2 0.0119 inactive; #3 0.699 inactive; #4 -0.556 inactive
TUBA3E: #1 -0.211 inactive
